The target in test [1] is HA-SNAP-mGluR2 (not stated (rat or human cDNA cloned)) (UniProt P31421). Put plainly: FRET or BRET. In general terms: BRET reads energy transfer from a luciferase to a nearby fluorophore.
Test [2] has as its target HA-SNAPf-mGluR2 (not stated (rat or human cDNA cloned)) (UniProt P31421). The experiment in a line: FRET or BRET.

Sequences of proteins named here, by UniProt entry; tags and fusion partners are left off. Residues count along the entry.
UniProt P31421, residues 19-872: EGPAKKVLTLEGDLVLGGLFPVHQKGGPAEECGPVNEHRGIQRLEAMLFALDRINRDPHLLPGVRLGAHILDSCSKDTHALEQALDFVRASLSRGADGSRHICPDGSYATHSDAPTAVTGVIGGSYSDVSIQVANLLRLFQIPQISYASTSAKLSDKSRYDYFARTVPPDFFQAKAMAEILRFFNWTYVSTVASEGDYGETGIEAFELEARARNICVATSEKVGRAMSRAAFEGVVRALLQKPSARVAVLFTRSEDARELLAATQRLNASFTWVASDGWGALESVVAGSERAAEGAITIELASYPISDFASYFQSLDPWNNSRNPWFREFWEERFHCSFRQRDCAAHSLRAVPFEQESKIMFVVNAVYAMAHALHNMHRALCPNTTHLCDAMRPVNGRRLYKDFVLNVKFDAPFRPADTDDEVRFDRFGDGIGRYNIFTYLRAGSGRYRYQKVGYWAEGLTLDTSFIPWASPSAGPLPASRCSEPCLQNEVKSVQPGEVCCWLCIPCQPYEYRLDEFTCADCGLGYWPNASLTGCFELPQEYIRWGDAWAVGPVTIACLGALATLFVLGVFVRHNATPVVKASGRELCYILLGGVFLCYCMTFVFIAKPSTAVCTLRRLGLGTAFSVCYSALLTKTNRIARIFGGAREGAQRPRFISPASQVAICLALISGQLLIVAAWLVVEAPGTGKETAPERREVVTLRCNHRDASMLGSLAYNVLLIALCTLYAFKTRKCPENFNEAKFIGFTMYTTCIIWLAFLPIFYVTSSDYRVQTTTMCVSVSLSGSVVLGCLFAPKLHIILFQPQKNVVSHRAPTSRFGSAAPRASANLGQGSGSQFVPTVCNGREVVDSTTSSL

No constants are given. Whether binding was seen depends on the method and setting. Binding seen in cells or lysates may run through a third protein. Some binding calls cover weakened binding; strength is not graded here.

Turning to “HA-SNAP-mGluR2 (from UniProt P31421 19-872) (receptor)”, in test [1], the binding entry is “binds”.

Turning to “HA-SNAPf-mGluR2 (from UniProt P31421 19-872) (receptor)”, the binding result in test [2] is reported as “binds”.

Values taken from paper doi:10.1101/563957.
